Laboratory results taken from doi:10.1101/2020.05.20.107664.

B1: H13 (protein, UniProt Q9D8V0 1-378)
chain: MDSAVSDPHNGSAEAGTPANGTTRPPSTPEGIALAYGSLLLMALLPIFFGALRSVRCARGKSSSDMPETITSRDAARFPIIASCTLLGLYLFFKIFSQEYINLLLSMYFFVLGILALSHTISPFMNKFFPANFPNRQYQLLFTQGSGENKEEIINYEFDTKDLVCLGLSSVVGVWYLLRKHWIANNLFGLAFSLNGVELLHLNNVSTGCILLGGLFIYDIFWVFGTNVMVTVAKSFEAPIKLVFPQDLLEKGLEADNFAMLGLGDIVIPGIFIALLLRFDISLKKNTHTYFYTSFAAYIFGLGLTIFIMHIFKHAQPALLYLVPACIGFPVLVALAKGEVAEMFSYEESNPKDPAAETESKEESTEASASKRLEKKEK
B2: Hsd17b12 (protein, UniProt O70503 1-312)
chain: MECAPPAAGFLYWVGASTIAYLALRASYSLFRAFQVWCVGNEALVGPRLGEWAVVTGGTDGIGKAYAEELAKRGMKIVLISRSQDKLNQVSNNIKEKFNVETRTIAVDFSLDDIYDKIKTGLSGLEIGVLVNNVGMSYEYPEYFLEIPDLDNTIKKLININVLSVCKVTRLVLPGMVERSKGVILNISSASGMLPVPLLTIYSATKAFVDFFSQCLHEEYKSKGIFVQSVMPYLVATKLAKIQKPTLDKPSAETFVKSAIKTVGLQTRTTGYVIHSLMGSINSIMPRWMYFKIIMGFSKSLRNRYLKKRKKN
B3: Lpcat1 (protein, UniProt Q3TFD2 1-534)
chain: MRLRGRGPRAAPSSSSGAGDARRLAPPGRNPFVHELRLSALQKAQVAFMTLTLFPIRLLFAAFMMLLAWPFALLASLGPPDKEPEQPLALWRKVVDFLLKAIMRTMWFAGGFHRVAVKGRQALPTEAAILTLAPHSSYFDAIPVTMTMSSIVMKAESRDIPIWGTLIRYIRPVFVSRSDQDSRRKTVEEIKRRAQSNGKWPQIMIFPEGTCTNRTCLITFKPGAFIPGVPVQPVVLRYPNKLDTITWTWQGPGALKILWLTLCQFQNQVEIEFLPVYCPSEEEKRNPALYASNVRRVMAKALGVSVTDYTFEDCQLALAEGQLRLPADTCLLEFARLVRGLGLKPENLEKDLDKYSESARMKRGEKIRLPEFAAYLEVPVSDALEDMFSLFDESGGGEIDLREYVVALSVVCRPSQTLATIQLAFKMYGSPEDGSIDEANLSCILKTALGVSELTVTDLFQAIDQEDKGRITFDDFCGFAEMYPDYAEDYLYPDQTHFDSCAQTPPAPTPNGFCIDFSPENSDFGRKNSCKKAD
B4: Mars (protein, UniProt Q68FL6 1-902)
chain: MRLFVSEGSPGSLPVLAAAARARGRAELLISTVGPEECVVPFLTRPKVPVLQLDSGNYLFSASAICRYFFLLCGWEQDDLTNQWLEWEATELQPVLSAALHCLVVQGKKGEDILGPLRRVLTHIDHSLSRQNCPFLAGDTESLADIVLWGALYPLLQDPAYLPEELGALQSWFQTLSTQEPCQRAAETVLKQQGVLALRLYLQKQPQPQPPPPEGRTVSNELEEEELATLSEEDIVTAVAAWEKGLESLPPLKLQQHPVLPVPGERNVLITSALPYVNNVPHLGNIIGCVLSADVFARYCRLRQWNTLYLCGTDEYGTATETKAMEEGLTPREICDKYHAIHADIYRWFGISFDTFGRTTTPQQTKITQDIFQRLLTRGFVLRDTVEQLRCERCARFLADRFVEGVCPFCGYEEARGDQCDRCGKLINAIELKKPQCKICRSCPVVRSSQHLFLDLPKLEKRLEDWLGKTVPGSDWTPNARFIIRSWLRDGLKPRCITRDLKWGTPVPLEGFEDKVFYVWFDATIGYVSITANYTDQWEKWWKNPEQVDLYQFMAKDNVPFHGLVFPCSVLGAEDNYTLVKHIIATEYLNYEDGKFSKSRGIGVFGDMAKDTGIPADIWRFYLLYIRPEGQDSAFSWTDLLIKNNSELLNNLGNFINRAGMFVSKFFGGCVPEMALTPDDRRLVAHVSWELQHYHQLLEKVRIRDALRSILTISRHGNQYIQVNEPWKRIKGGEMDRQRAGTVTGMAVNMAALLSVMLQPYMPTVSSTIQTQLQLPPAACRILATSFICTLPAGHRIGTVSPLFQKLENDQIENLRQRFGGGQAKGSPKPAAVEAVTAAGSQHIQTLTDEVTKQGNVVRELKAQKADKNQVAAEVAKLLDLKKQLALAEGKPIETPKGKKKK
B5: Myl12a (protein, UniProt Q6ZWQ9 1-172)
chain: MSSKRAKTKTTKKRPQRATSNVFAMFDQSQIQEFKEAFNMIDQNRDGFIDKEDLHDMLASMGKNPTDEYLDAMMNEAPGPINFTMFLTMFGEKLNGTDPEDVIRNAFACFDEEAIGTIQEDYLRELLTTMGDRFTDEEVDELYREAPIDKKGNFNYIEFTRILKHGAKDKDD
B6: Ncln (protein, UniProt Q8VCM8 43-563)
chain: AHEFTVYRMQQYDLQGQPYGTRNAVLNTEARTVDADVLSRRCVLMRLLDFSYEHYQKALRQSAGAVVIILPRAMAAVPQDVVRQFMEIEPEMLAMETVVPVYFAVEDEALLSIYEQTQAASASQGSASAAEVLLHTATANGFQMVTSGAQSQAVSDWLITSVEGRLTGLGGEDLPTIVIVAHYDAFGVAPWLSLGADSNGSGISVLLELARLFSRLYTYKRTHAAYNLLFFASGGGKFNYQGTKRWLEDSLDHTDSSLLQDNVAFVLCLDTVGRGSHLRLHVSKPPREGTLQHAFLRELETVAAHQFPDVSFSMVHKKINLADDVLAWEHERFAIRRLPAFTLSHLESHRAGPRSSIMDVRSRVDSKTLTRNTRIIAEALTRVIYNLTEKGTPPDMPVFTEQMQVQEEQIDSVMDWLTNQPRAAQLLDKDGTFLSTLEHFLSRYLKDVRQHHVKADKRDPEFVFYDQLKQVMNAYRVKPAIFDLLLALCIGAYLGMAYTAVQHFHVLYKTVQRLLLKAKAQ
B7: Hacd3 (protein, UniProt Q8K2C9 1-362)
chain: METQVLTPHVYWAQRHRELYLRVELSDVQNPAISITDNVLHFKAQGHGAKGDNVYEFHLEFLDLVKPEPAYRLTQRQVNITVQKKGSHWWERLTKQEKRPLFLAPDFDRWLDESDAEMELRAKEEERLNKLRLEREGSPETLTNLKKGYLFMYNLVQLLGFSWIFVNLTVRFFILGKESFYDTFHNVADMMYFCQMLALVETLNAAIGVTSTPVLPALIQFLGRNFILFLVFGTMEEMQNKAVVFFVFYSWSAIEIFRYPFYMLSCIDMDWKVLTWLRYTMWIPLYPLGCLSEAVAVIQSIPVFNESGRFSFTLPYPVKMKVRFSFFLQVYLVMLFLGLYINFRHLYKQRRRRYGQKKKKLH
B8: Slc25a4 (protein, UniProt P48962 1-298)
chain: MGDQALSFLKDFLAGGIAAAVSKTAVAPIERVKLLLQVQHASKQISAEKQYKGIIDCVVRIPKEQGFLSFWRGNLANVIRYFPTQALNFAFKDKYKQIFLGGVDRHKQFWRYFAGNLASGGAAGATSLCFVYPLDFARTRLAADVGKGSSQREFNGLGDCLTKIFKSDGLKGLYQGFSVSVQGIIIYRAAYFGVYDTAKGMLPDPKNVHIIVSWMIAQSVTAVAGLVSYPFDTVRRRMMMQSGRKGADIMYTGTLDCWRKIAKDEGANAFFKGAWSNVLRGMGGAFVLVLYDEIKKYV
B9: Slc25a5 (protein, UniProt P51881 1-298)
chain: MTDAAVSFAKDFLAGGVAAAISKTAVAPIERVKLLLQVQHASKQITADKQYKGIIDCVVRIPKEQGVLSFWRGNLANVIRYFPTQALNFAFKDKYKQIFLGGVDKRTQFWRYFAGNLASGGAAGATSLCFVYPLDFARTRLAADVGKAGAEREFKGLGDCLVKIYKSDGIKGLYQGFNVSVQGIIIYRAAYFGIYDTAKGMLPDPKNTHIFISWMIAQSVTAVAGLTSYPFDTVRRRMMMQSGRKGTDIMYTGTLDCWRKIARDEGSKAFFKGAWSNVLRGMGGAFVLVLYDEIKKYT
B10: Smpd4 (protein, UniProt Q6ZPR5 1-823)
chain: MAFPHLQQPSFLLASLKADSINKPFAQRCQDLVKVIEDFPAKELHAVFPWLVESIFGSLDGVLVGWNLRCLQGRVNPVEYSTAMEFLDPSGPMMKLVYKLQAEDYNFDFPVSCLPGPVKASIQENVLPDSPLYHNKVQFPPTGGLGLNLALNPFEYYMFYFALSLISQKPMSMTLHVRTSDCAYFTLVDRYLSWFLPTEGSVPPPLCSSPGGSSPSPAPRTPAMPFASYGLHTSLLKRHISHQTSVNADPASHEIWRSETLLQVFVEMWLHHYSLEMYQKMQSPHAKLEVLHYRLTVSSALHSPAQPSLQALHAYQESFTPTEEHVLVVRLLLKHLHAFANSLKPDQASPSAHSHATSPLEEFKRAAVPRFVQQKLYVFLQHCFGHWPLDATFRAVLEMWLSYLQPWRYAPEKQAQGSDPQPRCVSEKWAPFIQENLLMYTKLFVSFLNRALRTDLVSPKNALMVFRVAKVFAQPNLAEMIQKGEQLFLEPELIIPHRQHRLFTVTTSFLSPWPPVVTDASFKVKSHVYSLEGQDCKYTPMFGPEIRTLVLRLAQLITQAKQTAKSISDQYVESPTGRSFLSWLTFGLTDTNSCYPANDLDEIGQDSIRKTDEYLEKALEYLRQIFRLSEAQLAQLTLALGSARDENGKQQLPDCIVGEEGLILTPLGRYQIINGLRRFEIEYQGDLELQPIRSYEITSLVRALFRLSSAINRRFAGQMAALCSRNDFLGSFCRYHLTEPALSNRHLLSPVGRRQVTNPARGPRLSLRFLGSYRTLLLLLMAFFVASLFCIGPLSCSLLLVLGYVLYAIAMTLLTERGKLHQL
B11: Stt3b (protein, UniProt Q3TDQ1 1-823)
chain: MAEPSAPESKHKSSLNSSPWSGLMALGNSRHGHHGPGTQSASSAAAPKPGPPAGLSGGLSQPAGWQSLLSFTILFLAWLAGFSSRLFAVIRFESIIHEFDPWFNYRSTHHLASHGFYEFLNWFDERAWYPLGRIVGGTVYPGLMITAGLIHWILNTLNITVHIRDVCVFLAPTFSGLTSISTFLLTRELWNQGAGLLAACFIAIVPGYISRSVAGSFDNEGIAIFALQFTYYLWVKSVKTGSVFWTMCCCLSYFYMVSAWGGYVFIINLIPLHVFVLLLMQRYSKRVYIAYSTFYIVGLILSMQIPFVGFQPIRTSEHMAAAGVFALLQAYAFLQYLRDRLTKQEFQTLFFLGVSLAAGAVFLSVIYLTYTGYIAPWSGRFYSLWDTGYAKIHIPIIASVSEHQPTTWVSFFFDLHILVCTFPAGLWFCIKNINDERVFVALYAISAVYFAGVMVRLMLTLTPVVCMLSAIAFSNVFEHYLGDDMKRENPPVEDSSDEDDKRNPGNLYDKAGKVRKHVTEQEKPEEGLGPNIKSIVTMLMLMLLMMFAVHCTWVTSNAYSSPSVVLASYNHDGTRNILDDFREAYFWLRQNTDEHARVMSWWDYGYQIAGMANRTTLVDNNTWNNSHIALVGKAMSSNETAAYKIMRSLDVDYVLVIFGGVIGYSGDDINKFLWMVRIAEGEHPKDIREGDYFTQQGEFRVDKAGSPTLLNCLMYKMSYYRFGEMQLDFRTPPGFDRTRNAEIGNKDIKFKHLEEAFTSEHWLVRIYKVKAPDNRETLGHKPRVTNIVPKQKYLSKKTTKRKRGYVKNKLVFKKGKKTSKKTV

target: FLAG-STING, in reconstituted Sting-/- MEFs (mouse); assay: affinity purification with mass spectrometry

Binder	binding
B1	binds
B2	binds
B3	binds
B4	binds
B5	binds
B6	binds
B7	binds
B8	binds
B9	binds
B10	binds
B11	binds

These are yes or no findings as the source states them, for the method shown. Binding seen in cells or lysates may run through a third protein. Here binding means that the protein was enriched with, or labelled near, the bait; the list need not be complete.
